Values from PubChem BioAssay AID743454 (Peter MacCallum Cancer Centre, 2014).
The whole screen tested about 18,000 reagents; below is a part drawn at random. 450 of them (2.5%) were called active. 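Single biological run; no consistent viability z cut-off exists, so the class columns, not z-scores, define the calls.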 Entries without a mark were called inactive. Reagent sequences are not shown.

Purpose: 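Knock-downs lowering viability or raising caspase 3/7 activity in vorinostat-treated resistant cells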 (primary screen)
Cells: human HCT116-VR colon cancer cells, selected for vorinostat resistance
Reagent: siRNA pool against human genes, 40 nM siRNA pool
Time to read-out: vorinostat for 24 h, read-out about 72 h after transfection
Conditions: vorinostat at 2.5 µM final
Measurement: 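Two measures, CellTiter-Fluor viability and luminescent caspase 3/7 activity, each as fold change against same-plate mock wells, mean of duplicates, then screen-wide robust z-score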
Reading the numbers: viability robust z-score: higher = more viable cells than screen typical; caspase robust z-score: higher = more caspase 3/7 activity than screen typical
Active means: 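Hits are knock-downs in viability class RV1/RV2 or caspase class CA1/CA2, excluding ones that killed cells in the no-drug cell-count arm; hits then retested with single siRNAs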

target gene,PubChem SID,viability hit class,caspase hit class,viability robust z-score,caspase robust z-score
C1GALT1C1 (C1GALT1 specific chaperone 1),SID152155025,no change,no change,1.81,0.08
SCARB1 (scavenger receptor class B member 1),SID152153189,no change,no change,0.18,-0.78
TPRA1 (transmembrane protein adipocyte associated 1),SID152153324,no change,no change,1.31,-0.11
CIC (capicua transcriptional repressor),SID135622904,no change,no change,0.3,1.75
SACS (sacsin molecular chaperone),SID135624012,no change,no change,1.01,-0.78
ZFYVE19 (zinc finger FYVE-type containing 19),SID135623427,no change,no change,0.55,-0.02
TFPI2 (tissue factor pathway inhibitor 2),SID134321601,no change,no change,0.2,-0.84
VWA1 (von Willebrand factor A domain containing 1),SID135623127,no change,no change,-1.82,4.07
PDZD9 (PDZ domain containing 9),SID134322217,no change,no change,-1.01,-0.05
MAP2K1 (mitogen-activated protein kinase kinase 1),SID56478687,no change,no change,-0.29,1.45
TIMM17A (translocase of inner mitochondrial membrane 17A),SID135622384,no change,no change,-1.15,4.52
AP2A1 (adaptor related protein complex 2 subunit alpha 1),SID134316760,no change,no change,1.06,1.73
IQCJ (IQ motif containing J),SID135625619,no change,no change,-0.6,-0.57
ROCK1 (Rho associated coiled-coil containing protein kinase 1),SID152156760,no change,no change,0.28,-0.16
KRTAP13-3 (keratin associated protein 13-3),SID134322526,no change,no change,0.4,-0.54
ZFP41 (ZFP41 zinc finger protein),SID152156606,no change,no change,0.21,0.55
AHCTF1 (AT-hook containing transcription factor 1),SID152153983,no change,no change,-1.82,1.44
ULK1 (unc-51 like autophagy activating kinase 1),SID56478976,no change,no change,0.77,-0.44
SCML4 (Scm polycomb group protein like 4),SID135624203,no change,no change,0.32,-0.6
PUM3 (pumilio RNA binding family member 3),SID152154928,no change,no change,-0.42,1.64
CARF (calcium responsive transcription factor),SID152153511,no change,no change,-0.36,2.83
SERINC3 (serine incorporator 3),SID135621964,no change,no change,-0.15,-0.55
STXBP5 (syntaxin binding protein 5),SID134321228,no change,no change,0.34,0.03
TNFRSF1A (TNF receptor superfamily member 1A),SID134310799,no change,no change,0.72,1.52
"BMI1 (BMI1 proto-oncogene, polycomb ring finger)",SID134310818,no change,no change,0.3,-0.88
THBS4 (thrombospondin 4),SID134321742,no change,no change,1.14,-1.09
DPF1 (double PHD fingers 1),SID135625020,no change,no change,-1.79,0.94
OR1Q1 (olfactory receptor family 1 subfamily Q member 1),SID152151871,no change,no change,0.53,-0.83
WIPF1 (WAS/WASL interacting protein family member 1),SID152149422,no change,no change,-1.15,-0.78

8 of these entries, reformatted:
{"target gene": "PUM3 (pumilio RNA binding family member 3)", "PubChem SID": "SID152154928", "viability hit class": "no change", "caspase hit class": "no change", "viability robust z-score": -0.42, "caspase robust z-score": 1.64}
{"target gene": "CARF (calcium responsive transcription factor)", "PubChem SID": "SID152153511", "viability hit class": "no change", "caspase hit class": "no change", "viability robust z-score": -0.36, "caspase robust z-score": 2.83}
{"target gene": "SERINC3 (serine incorporator 3)", "PubChem SID": "SID135621964", "viability hit class": "no change", "caspase hit class": "no change", "viability robust z-score": -0.15, "caspase robust z-score": -0.55}
{"target gene": "STXBP5 (syntaxin binding protein 5)", "PubChem SID": "SID134321228", "viability hit class": "no change", "caspase hit class": "no change", "viability robust z-score": 0.34, "caspase robust z-score": 0.03}
{"target gene": "TNFRSF1A (TNF receptor superfamily member 1A)", "PubChem SID": "SID134310799", "viability hit class": "no change", "caspase hit class": "no change", "viability robust z-score": 0.72, "caspase robust z-score": 1.52}
{"target gene": "BMI1 (BMI1 proto-oncogene, polycomb ring finger)", "PubChem SID": "SID134310818", "viability hit class": "no change", "caspase hit class": "no change", "viability robust z-score": 0.3, "caspase robust z-score": -0.88}
{"target gene": "THBS4 (thrombospondin 4)", "PubChem SID": "SID134321742", "viability hit class": "no change", "caspase hit class": "no change", "viability robust z-score": 1.14, "caspase robust z-score": -1.09}
{"target gene": "DPF1 (double PHD fingers 1)", "PubChem SID": "SID135625020", "viability hit class": "no change", "caspase hit class": "no change", "viability robust z-score": -1.79, "caspase robust z-score": 0.94}

The results go on:
target gene,PubChem SID,viability hit class,caspase hit class,viability robust z-score,caspase robust z-score
OR9Q2 (olfactory receptor family 9 subfamily Q member 2),SID152153293,no change,no change,-1.08,-0.04
IFNA13 (interferon alpha 13),SID134318434,no change,no change,1.6,-0.6
MRPL21 (mitochondrial ribosomal protein L21),SID135623670,no change,no change,1.14,-0.94
TAAR9 (trace amine associated receptor 9),SID135621065,no change,no change,-1.04,0.16
PAGE2 (PAGE family member 2),SID135625073,no change,no change,0.52,0.82
FREM2 (FRAS1 related extracellular matrix 2),SID152152904,no change,no change,-1.07,-0.23
CHD5 (chromodomain helicase DNA binding protein 5),SID134314575,no change,no change,-1.12,-0.04
COMMD8 (COMM domain containing 8),SID152151507,no change,no change,0.02,2.21
LIN7B (lin-7 cell polarity scaffold B),SID135621814,no change,no change,-1.12,0.34
DOP1B (DOP1 leucine zipper like protein B),SID134323667,no change,no change,1.52,1.53
CACNB2 (calcium voltage-gated channel auxiliary subunit beta 2),SID135621635,no change,no change,0.44,0.48
MYCBP2 (MYC binding protein 2),SID152149067,no change,no change,-0.39,1.11
TBCE (tubulin folding cofactor E),SID152148970,no change,no change,0.99,-0.97
TRABD (TraB domain containing),SID134323185,no change,no change,-0.35,0.28
H3C14 (H3 clustered histone 14),SID134322908,no change,no change,-1.49,1.3
LMX1B (LIM homeobox transcription factor 1 beta),SID134316848,no change,no change,0.44,-0.38
TBCCD1 (TBCC domain containing 1),SID152148649,no change,no change,1.61,1.31
HINFP (histone H4 transcription factor),SID134318137,no change,no change,0.62,-0.15
UPF2 (UPF2 regulator of nonsense mediated mRNA decay),SID135622432,no change,no change,0.48,1.02
H2BC1 (H2B clustered histone 1),SID134321458,no change,no change,-0.49,-0.61
FBXO2 (F-box protein 2),SID134316701,no change,no change,-1.23,0.6
GHSR (growth hormone secretagogue receptor),SID134310956,no change,no change,-1.67,-0.66
DAGLA (diacylglycerol lipase alpha),SID134316498,no change,no change,0.9,3.2
RNF31 (ring finger protein 31),SID135624200,no change,no change,1.37,0.04
CIT (citron rho-interacting serine/threonine kinase),SID56478810,no change,no change,-1.03,3.28
FAM13A (family with sequence similarity 13 member A),SID135624002,no change,no change,0.34,4.97
ODF4 (outer dense fiber of sperm tails 4),SID134320394,no change,no change,-0.24,-0.64
NRXN3 (neurexin 3),SID152154257,no change,no change,1.17,-0.52
